# Measurements taken from patent US8568763B2, “Compositions and coatings for delivery of therapeutic agents” (The University of Tennessee Research Foundation, priority 2004, dated 2013).
# At least one compound was matched to its structure with a doubt left.
# Tests used:
# neointimal formation [1] = conditions: early human trials, 6 months; cited from earlier work
# neointimal formation [2] = conditions: preclinical studies, 30 days; cited from earlier work
# [3] = Rapamycin content of grafts pre and post ethylene oxide sterilization; assay type: physicochemical; conditions: prior to implantation, HPLC
compound,measurement,setting,value
"CO[C@H]1C[C@@H]2CC[C@@H](C)[C@@](O)(O2)C(=O)C(=O)N2CCCC[C@H]2C(=O)O[C@H]([C@H](C)C[C@@H]2CC[C@@H](O)[C@H](OC)C2)CC(=O)[C@H](C)/C=C(\C)[C@@H](O)[C@@H](OC)C(=O)[C@H](C)C[C@H](C)/C=C/C=C/C=C/1C [Rapamycin, rapamycin]",inhibition of neointimal formation,neointimal formation [1],80-90%
same,reduction in neointimal formation,neointimal formation [2],50%
same,Effect of ethylene oxide sterilization on rapamycin content of graft,[3],did not cause loss of rapamycin
